From paper PMC3415457, “Cohesin Rings Devoid of Scc3 and Pds5 Maintain Their Stable Association with the DNA” (PLoS Genetics, 2012)
No constants are given. Whether binding was seen depends on the method and setting. Some results given as binding are weak or reduced against the parent protein; the word gives no strength. Tags and fused reporters may be left off the sequences shown.

Biological target: T1, GST fused to the C-terminal region (aa 338–566) of Scc1 (S. cerevisiae (budding yeast)) (UniProt Q12158)
T1 sequence: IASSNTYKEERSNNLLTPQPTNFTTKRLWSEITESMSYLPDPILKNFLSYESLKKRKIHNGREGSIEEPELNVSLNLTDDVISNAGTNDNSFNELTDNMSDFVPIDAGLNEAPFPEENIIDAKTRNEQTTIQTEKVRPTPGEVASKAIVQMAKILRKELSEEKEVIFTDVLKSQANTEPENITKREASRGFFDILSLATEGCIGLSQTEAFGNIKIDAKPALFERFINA
Test: pull-down; GST fusions of Scc1 regions on glutathione-agarose beads; His6-tagged Wpl1, Scc3 and Pds5 mixed together and pre-incubated 30 min at 4°C, then with beads 2 h at 4°C; 20 mM HEPES pH 7.5, 100 mM NaCl, 5% glycerol, 5 mM 2-mercaptoethanol; washes with 0.5% NP-40; Western blot with Penta-His antibody; both purified

B1: Pds5, recombinant, His6-tagged (protein, UniProt Q04264 1-1277)
chain: MAKGAVTKLKFNSPIISTSDQLISTNELLDRLKALHEELASLDQDNTDLTGLDKYRDALVSRKLLKHKDVGIRAFTACCLSDILRLYAPDAPYTDAQLTDIFKLVLSQFEQLGDQENGYHIQQTYLITKLLEYRSIVLLADLPSSNNLLIELFHIFYDPNKSFPARLFNVIGGILGEVISEFDSVPLEVLRLIFNKFLTYNPNEIPEGLNVTSDCGYEVSLILCDTYSNRMSRHLTKYYSEIIHEATNDDNNSRLLTVVVKLHKLVLRLWETVPELINAVIGFIYHELSSENELFRKEATKLIGQILTSYSDLNFVSTHSDTFKAWISKIADISPDVRVEWTESIPQIIATREDISKELNQALAKTFIDSDPRVRRTSVMIFNKVPVTEIWKNITNKAIYTSLLHLAREKHKEVRELCINTMAKFYSNSLNEIERTYQNKEIWEIIDTIPSTLYNLYYINDLNINEQVDSVIFEYLLPFEPDNDKRVHRLLTVLSHFDKKAFTSFFAFNARQIKISFAISKYIDFSKFLNNQESMSSSQGPIVMNKYNQTLQWLASGLSDSTKAIDALETIKQFNDERIFYLLNACVTNDIPFLTFKNCYNELVSKLQTPGLFKKYNISTGASIMPRDIAKVIQILLFRASPIIYNVSNISVLLNLSNNSDAKQLDLKRRILDDISKVNPTLFKDQIRTLKTIIKDLDDPDAEKNDNLSLEEALKTLYKASKTLKDQVDFDDTFFFTKLYDFAVESKPEITKYATKLIALSPKAEETLKKIKIRILPLDLQKDKYFTSHIIVLMEIFKKFPHVLNDDSTDIISYLIKEVLLSNQVVGDSKKEIDWVEDSLLSDTKYSAIGNKVFTLKLFTNKLRSIAPDVPRDELAESFTEKTMKLFFYLIASGGELISEFNKEFYPTPSNYQTKLRCVAGIQVLKLARISNLNNFIKPSDIIKLINLVEDESLPVRKTFLEQLKDYVANELISIKFLPLVFFTAYEPDVELKTTTKIWINFTFGLKSFKKGTIFERALPRLIHAIAHHPDIVGGLDSEGDAYLNALTTAIDYLLFYFDSIAAQENFSLLYYLSERVKNYQDKLVEDEIDEEEGPQKEEAPKKHRPYGQKMYIIGELSQMILLNLKEKKNWQHSAYPGKLNLPSDLFKPFATVQEAQLSFKTYIPESLTEKIQNNIKAKIGRILHTSQTQRQRLQKRLLAHENNESQKKKKKVHHARSQADDEEGDGDRESDSDDDSYSPSNKNETKKGHENIVMKKLRVRKEVDYKDDEDDDIEMT
- binding: binds weakly
